# Assay results: patent publication US20240252508A1, “Novel glucose uptake inhibitors for use in the treatment of cancer” (NOVELYEAST BV, priority 2021, published 2024)
# Some of these results come from one statement about several compounds together.
# Assay: Compound solubilization and handling
# Assay type: physicochemical
# Conditions: 100% DMSO stock
structure (smiles),measurement,value
Cc1nc(SCC(=O)c2ccc3c(c2)NC(=O)CO3)c2c(-c3cccs3)csc2n1 [WBC-11C],Concentration dissolved in 100% DMSO,≥ 50000 µM
